According to PubChem BioAssay AID248 (DTP/NCI, 2004):
The list does not hold the whole screen: it gathers tests that were run many times, whatever their T/C, doses with no T/C, and many T/C values between a quarter and a half above the control. Other doses and runs of a compound stand elsewhere. T/C: endpoint of the treated group in % of that of the vehicle group. Some doses have a count of surviving animals in place of a T/C: the source holds a T/C of zero for them, seemingly a mark for toxic or unscored doses. Some doses without a T/C left all or most animals alive at the check, yet need not have been tolerated: survival well below the control is almost never listed, so the zero probably covers shortened survival too. Counts of survivors are from the toxicity check (mostly the fifth day) where no day follows; animals may have died later. Schedule codes are those of the source, taken here to give the interval after Q, in days (D) or hours (H), and the number of doses after X. Some entries were tested several times; the values are given in rising order. For survival time, this PubChem deposit counts one and a half times the control or more as active, and values a quarter to a half above the control carry no call in these data; other NCI protocols may use other cut-offs. Some T/C values are followed by the survivors on the day toxicity was checked, most often the fifth; where none is given, no animal had died by that day.

Tested on: L1210 leukemia ip in BDF1 mice, survival T/C
Experiment: NCI In Vivo Anticancer Drug Screen. Data for tumor model L1210 Leukemia (intraperitoneal) in B6D2F1 (BDF1) mice
Settings: T/C endpoint: mean survival time, higher T/C = longer survival
[1] = dose: 400.0 mg/kg/injection, schedule: Q01DX001 (ip), vehicle: Klucel (hydroxypropylcellulose) (HPC)
[2] = dose: 400.0 mg/kg/injection, schedule: Q04DX003 (ip), vehicle: Klucel (hydroxypropylcellulose) (HPC)
[3] = dose: 200.0 mg/kg/injection, schedule: Q01DX009 (ip), vehicle: Klucel (hydroxypropylcellulose) (HPC)
[4] = dose: 400.0 mg/kg/injection, schedule: Q04DX003 (ip), vehicle: saline
[5] = dose: 400.0 mg/kg/injection, schedule: Q01DX009 (ip), vehicle: saline with Tween-80
[6] = dose: 200.0 mg/kg/injection, schedule: Q01DX009 (ip), vehicle: saline with Tween-80
[7] = dose: 50.0 mg/kg/injection, schedule: Q01DX009 (ip), vehicle: Klucel (hydroxypropylcellulose) (HPC)
[8] = dose: 100.0 mg/kg/injection, schedule: Q01DX009 (ip), vehicle: Klucel (hydroxypropylcellulose) (HPC)
[9] = dose: 100.0 mg/kg/injection, schedule: Q04DX002 (ip), vehicle: Klucel (hydroxypropylcellulose) (HPC)
[10] = dose: 200.0 mg/kg/injection, schedule: Q04DX002 (ip), vehicle: Klucel (hydroxypropylcellulose) (HPC)
[11] = dose: 400.0 mg/kg/injection, schedule: Q04DX002 (ip), vehicle: Klucel (hydroxypropylcellulose) (HPC)
[12] = dose: 400.0 mg/kg/injection, schedule: Q01DX009 (ip), vehicle: Klucel (hydroxypropylcellulose) (HPC)
[13] = dose: 75.0 mg/kg/injection, schedule: Q01DX009 (ip), vehicle: Klucel (hydroxypropylcellulose) (HPC)
[14] = dose: 400.0 mg/kg/injection, schedule: Q04DX003 (ip), vehicle: saline with Tween-80
[15] = dose: 300.0 mg/kg/injection, schedule: Q01DX001 (ip), vehicle: saline

C#CCn1cnc2c(=S)nc[nH]c21
T/C (dose: 45.0 mg/kg/injection, schedule: Q01DX009 (ip), vehicle: saline): 146 % of control
T/C (dose: 120.0 mg/kg/injection, schedule: Q04DX003 (ip), vehicle: saline): 136 % of control
T/C (dose: 177.0 mg/kg/injection, schedule: Q04DX003 (ip), vehicle: Klucel (hydroxypropylcellulose) (HPC)): 132 % of control
T/C (dose: 264.0 mg/kg/injection, schedule: Q01DX001 (ip), vehicle: other): 133 % of control
survivor count (dose: 265.0 mg/kg/injection, schedule: Q01DX009 (ip), vehicle: saline): 6 of 6
T/C (dose: 266.0 mg/kg/injection, schedule: Q01DX001 (ip), vehicle: Klucel (hydroxypropylcellulose) (HPC)): 131 % of control
T/C [1]: 135 % of control
T/C (dose: 400.0 mg/kg/injection, schedule: Q01DX001 (ip), vehicle: other): 125 and 139 % of control
survivor count (dose: 400.0 mg/kg/injection, schedule: Q01DX009 (ip), vehicle: saline): 6 of 6
T/C [2]: 141 % of control
survivor count (dose: 600.0 mg/kg/injection, schedule: Q01DX009 (ip), vehicle: saline): 6 of 6
T/C (dose: 600.0 mg/kg/injection, schedule: Q04DX003 (ip), vehicle: Klucel (hydroxypropylcellulose) (HPC)): 143 % of control

O=C/C(Br)=C\c1ccccc1
survivor count (dose: 200.0 mg/kg/injection, schedule: Q04DX003 (ip), vehicle: Klucel (hydroxypropylcellulose) (HPC)): 0 of 6
survivor count [2]: 1 of 6

CC(NC(=O)NCCCl)c1ccco1 (configuration not stated)
survivor count [3]: 1 of 6
survivor count [2]: 0 of 6

C[n+]1ccccc1C(=O)O (tested in a mixture with another compound)
survivor count [4]: 0 of 6

Cc1ccc(S(=O)(=O)Nc2ccccc2-c2nc3ccc([N+](=O)[O-])cc3c(=O)o2)cc1
survivor count [5]: 2 of 6

O=C/C=C/c1ccc([N+](=O)[O-])cc1
survivor count (dose: 50.0 mg/kg/injection, schedule: Q01DX009 (ip), vehicle: saline with Tween-80): 5 of 6
survivor count [6]: 3 of 6

Cc1cn(Cc2ccc(Cl)cc2Cl)c(C)n1
T/C [7]: 95, 97, 101, 111 % of control
T/C [8]: 98 [5 of 6 alive] and 107 % of control [4 of 6 alive]
survivor count [8]: 1 of 3
T/C [9]: 89 [2 of 3 alive], 107, 116, 120 % of control
survivor count [3]: 0 of 3 and 0 of 6
survivor count [10]: 0 of 3, 0 of 6, 2 of 6
survivor count [11]: 0 of 3 and 0 of 6

CC1(c2cccc3ccccc23)OCC2(CCCCC2)CO1
survivor count (dose: 162.5 mg/kg/injection, schedule: Q01DX009 (ip), vehicle: DMSO): 5 of 6
survivor count (dose: 325.0 mg/kg/injection, schedule: Q01DX009 (ip), vehicle: DMSO): 0 of 6

COc1ccc2nc3cc(Cl)ccc3c(Nc3ccc(O)c(CN4CCN(C)CC4)c3)c2c1
survivor count (dose: 300.0 mg/kg/injection, schedule: Q04DX003 (ip), vehicle: other): 3 of 6

CCN(CC)/N=N/c1nc[nH]c1C(N)=O
T/C [8]: 127 % of control
survivor count [3]: 5 of 6
survivor count (dose: 200.0 mg/kg/injection, schedule: Q01DX009 (ip), vehicle: water): 9 of 10
survivor count [12]: 0 of 6
survivor count (dose: 400.0 mg/kg/injection, schedule: Q01DX009 (ip), vehicle: water): 0 of 10

CN(C)N=Nc1ccc2[nH]ncc2c1
T/C (dose: 12.5 mg/kg/injection, schedule: Q01DX009 (ip), vehicle: Klucel (hydroxypropylcellulose) (HPC)): 130 % of control
T/C (dose: 22.0 mg/kg/injection, schedule: Q01DX009 (ip), vehicle: Klucel (hydroxypropylcellulose) (HPC)): 128 % of control
T/C (dose: 25.0 mg/kg/injection, schedule: Q01DX009 (ip), vehicle: Klucel (hydroxypropylcellulose) (HPC)): 137 % of control
T/C (dose: 33.0 mg/kg/injection, schedule: Q01DX009 (ip), vehicle: Klucel (hydroxypropylcellulose) (HPC)): 149 % of control
T/C [7]: 126 and 136 % of control
survivor count [13]: 6 of 6
survivor count [8]: 1 of 6
survivor count (dose: 200.0 mg/kg/injection, schedule: Q01DX001 (ip), vehicle: Klucel (hydroxypropylcellulose) (HPC)): 0 of 6
survivor count [1]: 0 of 6

CN(C)C(=N)CSS(=O)(=O)O
survivor count [11]: 0 of 3

CCOP(=S)(N1CCNCC1)N1CCNCC1
survivor count (dose: 300.0 mg/kg/injection, schedule: Q01DX009 (ip), vehicle: Klucel (hydroxypropylcellulose) (HPC)): 0 of 6

C=C1CC(C)(c2ccc(CCCC(=O)OCC)cc2)OC1=O (configuration not stated)
survivor count [14]: 5 of 6

CN1C2C=C(c3ccccc3)C(Br)C1CC2 (configuration not stated)
survivor count (dose: 80.0 mg/kg/injection, schedule: Q04DX003 (ip), vehicle: saline with Tween-80): 6 of 6
survivor count [15]: 0 of 6

Cc1ccc(CNC(=O)Nc2cccc(C(F)(F)F)c2)cc1C
survivor count (dose: 400.0 mg/kg/injection, schedule: Q01DX009 (ip), vehicle: gum acacia): 5 of 6

Fc1c(F)c(F)c(Oc2c(F)c(F)c(F)c(F)c2Oc2c(F)c(F)c(F)c(F)c2F)c(F)c1F
survivor count (dose: 37.5 mg/kg/injection, schedule: Q01DX009 (ip), vehicle: Klucel (hydroxypropylcellulose) (HPC)): 1 of 6
survivor count [13]: 2 of 6

Cn1c(SCc2ccccc2)nccc1=O
survivor count [12]: 1 of 6

CC1=C(Cl)C(=O)C(Cl)=C(Cl)C1=O
survivor count (dose: 150.0 mg/kg/injection, schedule: Q01DX001 (ip), vehicle: saline): 2 of 6
survivor count [15]: 2 of 6

CCCCC(CC)C(=O)[O][Sn]([CH2]CCC)([CH2]CCC)[O]C(=O)C(CC)CCCC (configuration not stated)
survivor count (dose: 50.0 mg/kg/injection, schedule: Q04DX003 (ip), vehicle: saline with Tween-80): 1 of 6
survivor count (dose: 100.0 mg/kg/injection, schedule: Q04DX003 (ip), vehicle: saline with Tween-80): 0 of 6
survivor count (dose: 200.0 mg/kg/injection, schedule: Q04DX003 (ip), vehicle: saline with Tween-80): 0 of 6

CN(C)c1ccc(NC2=NCCO2)cc1
survivor count (dose: 100.0 mg/kg/injection, schedule: Q01DX009 (ip), vehicle: saline): 0 of 6
survivor count [4]: 0 of 6

CCc1c(C)nc(N)[nH]c1=O
survivor count [14]: 2 of 6

CC[C@@]1(O)C(=O)OCc2c1cc1n(c2=O)Cc2c-1nc1ccccc1c2Cl
T/C (dose: 200.0 mg/kg/injection, schedule: Q01DX001 (ip), vehicle: saline): 130 % of control

O=C(NO)c1cccc(C(=O)NO)n1
survivor count (dose: 800.0 mg/kg/injection, schedule: Q01DX015 (ip), vehicle: water): 3 of 6

CCC(SC#N)C(CC)SC#N (configuration not stated)
survivor count [9]: 0 of 3
survivor count [10]: 0 of 3
survivor count [11]: 0 of 3

Cc1ccc(/C=C(\C#N)C(=O)O)cc1
survivor count (dose: 100.0 mg/kg/injection, schedule: Q01DX009 (ip), vehicle: saline with Tween-80): 1 of 3
survivor count [6]: 1 of 3

O=C(O)CSC(=S)c1ccccc1
survivor count [5]: 2 of 6

N#CCOC(=O)c1ccc[nH]1
survivor count (dose: 75.0 mg/kg/injection, schedule: Q01DX001 (ip), vehicle: acetone): 0 of 6
survivor count (dose: 150.0 mg/kg/injection, schedule: Q01DX001 (ip), vehicle: acetone): 0 of 6
survivor count (dose: 300.0 mg/kg/injection, schedule: Q01DX001 (ip), vehicle: acetone): 0 of 6

CC(C)(Br)C(=O)C(Br)Br
survivor count (dose: 400.0 mg/kg/injection, schedule: Q01DX001 (ip), vehicle: saline): 0 of 4

Cc1cc(C)n2ncnc2n1
survivor count [5]: 0 of 6

NC(=S)N/N=C/c1ccc(Cl)cc1
survivor count [8]: 0 of 6 and 1 of 6
survivor count [3]: 0 of 6
survivor count [12]: 0 of 6
